The values that follow come from publication doi:10.1101/2025.09.02.671137 (bioRxiv, 2025).

The target of this test is Cdc13-K504E (K504E point mutant of full-length Cdc13) (S. cerevisiae) (UniProt P32797). As to the kind of experiment: SEC. Background: Size exclusion chromatography separates by hydrodynamic size, large species first.

These are yes or no findings as the source states them, for the method shown. Some results given as binding are weak or reduced against the parent protein; the word gives no strength.

B1: Cdc13-K504E (K504E point mutant of full-length Cdc13) (protein, UniProt P32797 1-924)
chain: MDTLEEPECPPHKNRIFVSSSKDFEGYPSKAIVPVQFVALLTSIHLTETKCLLGFSNFERRGDQSQEDQYLIKLKFKDRGSERLARITISLLCQYFDIELPDLDSDSGASPTVILRDIHLERLCFSSCKALYVSKHGNYTLFLEDIKPLDLVSVISTISTKSTNSSKHSSSELISECDLNNSLVDIFNNLIEMNRDEKNRFKFVKLIHYDIELKKFVQDQQKVLSQKSKAAAINPFFVPNRLGIPYIESQNEFNSQLMTLNVDEPTTDISNMGEEMHDSADPIEDSDSSTTSSTGKYFSSKSYIQSQTPERKTSVPNNWHDDDSGSKRKRKLSFHSPNASSIRKAISYEQLSLASVGSVERLEGKIVGMNPPQFASINEFKYCTLKLYFTQLLPNVPDKVLVPGVNCIEIVIPTRERICELFGVLNCQSDKISDILLLEKPDRISVEVERILWDNDKTASPGMAVWSLKNISTDTQAQAQVQVPAQSSASIDPSRTRMSKMAREDPTIEFCQLGLDTFETKYITMFGMLVSCSFDKPAFISFVFSDFTKNDIVQNYLYDRYLIDYENKLELNEGFKAIMYKNQFETFDSKLRKIFNNGLRDLQNGRDENLSQYGIVCKMNIKVKMYNGKLNAIVRECEPVPHSQISSIASPSQCEHLRLFYQRAFKRIGESAISRYFEEYRRFFPIHRNGSHLAKLRFDEVKHEPKKSPTTPALAEHIPDLNADVSSFDVKFTDISSLLDSSARLPRPQQTHKSNTLYSCEGRIIAIEYHASDLCFHITNELPLLQTRGLAPERVLQLHIITSKNFAYFFNRSSAYLQRQPLEEKYTQLAQFLGHSFKFNITSSLTLFPDTTVALQIWCPIECTFRELQQQLAHPKVAAAPDSGSLDCAINATVNPLRLLAAQNGVTVKKEEDNDDDAGAVPTS
B1: the binding entry is reported as “binds”.
